Data taken from ChEMBL document CHEMBL3988442, “University of Dundee, Small-Polar-MMV Screening Library” (2021).

Results are given as percent effect.
The controls that fix the scale are not given in the record; negative values are as filed.
This is an unselected part of the compounds tested.
Two or more numbers in one place are separate tests of the same structure; such repeats can differ widely.

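Viability assay of Plasmodium falciparum sporozoites; the read-out is not stated. The concentration is filed as 10 mM, unlikely as a test dose, so the dose is not known. Higher reads as lower viability (inferred: compounds with an IC50 in retests scored well above the rest). Strong results were mostly tested again. Of about 34,000 compounds tested this way, about 280 (0.84%) reached 50% or more in at least one test.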

| # | compound | Percent Effect |
|---|---|---|
| 1 | `Clc1ccccc1C1(c2ccnc(CC3CC3)n2)CCNCC1` | 1.745 |
| 2 | `Cc1cc(C)n(CNc2nonc2C(N)=O)n1` | 9.665 |
| 3 | `[H][C@@]12CCCO[C@]1([H])[C@H](N(C)Cc1ccco1)CN(Cc1ccoc1)C2` | -1.946 |
| 4 | `CCc1nc(C2CCCN2C(=O)c2c[nH]c(C)n2)no1` (stereo unspecified) | -7.843 |
| 5 | `Cc1oc2nc[nH]c(=O)c2c1C(=O)N1CCCC(n2cccn2)C1` (stereo unspecified) | -21.67 and -13.51 |
| 6 | `O=C(O)C(F)(F)F.O=C1CCC2(CCN(Cc3ccc(F)cc3)CC2)N1Cc1ccccc1` | 2.148 |
| 7 | `Cc1ccc(C(=O)Nc2cc(F)ccc2OCC2CCCO2)cn1` (stereo unspecified) | -5.351 |
| 8 | `CCOCC1CN(C(=O)c2cnccn2)Cc2cnn(CC3CC3)c21.O=C(O)C(F)(F)F` (stereo unspecified) | -9.869 |
| 9 | `[H][C@@]12C[C@H](C(=O)NCc3ccco3)CN(S(=O)(=O)C3CC3)[C@]1([H])CCO2` | 7.9 |
| 10 | `Cc1nc(CN2CCCCC2CCc2ccc(O)cc2)co1` (stereo unspecified) | -4.579 |
| 11 | `O=C(O)C(F)(F)F.[H][C@@]12CCN(CC(=O)NC)C[C@]1([H])CN(C(=O)c1ccoc1)C2` | -3.947 |
| 12 | `Cc1cccc(C(=O)NC(CN2CCCC2=O)c2ccccc2)n1` (stereo unspecified) | 7.09 |
| 13 | `COCCN1C[C@H](NC(=O)CCC(F)(F)F)[C@@H](C(C)C)C1` | -27.54 |
| 14 | `COCCCNC(=O)N1CCN(C(=O)c2nsc3ccccc23)CC1` | -17.71 |
| 15 | `Cl.[H][C@@]12CN(C3CCCCC3)CC[C@]1([H])N(C(=O)C1CCC1)C[C@H]2c1ccsc1` | -1.374 |
| 16 | `NC(=O)NCC1CCCCN1Cc1nc(-c2ccco2)no1` (stereo unspecified) | -11.43 and -12.47 and 2.175 |
| 17 | `COCCN(C)C[C@@H]1CN(C(=O)c2cccc(C(F)(F)F)c2)C[C@@H]1CO` | -10.24 |
| 18 | `N#Cc1ccccc1N1CCN(C(=O)NCC(=O)N2CCCC2)CC1` | -5.623 |
| 19 | `Cc1noc(-c2cnc(NCC3CCCO3)nc2-c2ccco2)c1C` (stereo unspecified) | 12.5 |
| 20 | `Cc1cc(C)c(CNC(=O)N(C)CC2CCCCO2)c(=O)[nH]1` (stereo unspecified) | -4.782 |
| 21 | `CCCc1noc(CNC2CCCN(Cc3noc(C4CC4)n3)C2)n1` (stereo unspecified) | 0.102 |
| 22 | `O=C(O)C(F)(F)F.[H][C@@]12OCCC[C@]1([H])N(S(=O)(=O)CC)C[C@H]2OCc1ccccn1` | -0.7299 |
| 23 | `[H][C@]12CC[C@]([H])(CN(C(=O)c3ccccn3)C1)N(C(=O)c1ccsc1)C2` | 0.2632 |
| 24 | `Cc1cnn(CCNCc2ccc(OCc3csc(C)n3)cc2)c1` | -1.288 |
| 25 | `CC(Nc1cccc(F)c1C#N)c1cccc(S(N)(=O)=O)c1` (stereo unspecified) | -10.29 |
| 26 | `CCN1CCC(NC(=O)CN2CCc3c(ncn3C3CC3)C2)CC1` | 16.27 |
| 27 | `CCN1CCn2c(C)cnc2C12CCN(C(=O)N(C)C)CC2.O=C(O)C(F)(F)F.O=C(O)C(F)(F)F` | 3.069 |
| 28 | `c1cc(CN2CCCn3nnc(COCC4CC4)c3C2)ccn1` | 14.5 |
| 29 | `Cc1noc(C)c1CN1CCc2ncnc(-c3cccnc3)c2CC1.O=C(O)C(F)(F)F.O=C(O)C(F)(F)F` | 11.91 |
| 30 | `O=C(O)C(F)(F)F.O=C(O)C(F)(F)F.c1cnc(N2CCC3(COCCN(CC4CC4)C3)C2)nc1` (stereo unspecified) | 4.362 |
| 31 | `CC(C)c1nn(C)c(N(C)C)c1CNC(C)c1ccccc1F` (stereo unspecified) | 4.88 |
| 32 | `O=C(CC(F)(F)F)N1CCC2(CCCN(c3nncs3)C2)C1` (stereo unspecified) | 15.76 |
| 33 | `Cc1cccnc1NC(=O)C(C)Cn1nc(C(F)(F)F)cc1C` (stereo unspecified) | -1.535 |
| 34 | `O=C(NCc1ccncc1)C1=NOC2(CCCNC2)C1` (stereo unspecified) | -11.68 |
| 35 | `COCCNCc1cc2cc(C)cc(C)c2[nH]c1=O` | 5.231 |
| 36 | `[H][C@]12CC[C@](O)(CC1)C(CN1CCOCC1)N2C(=O)c1ccco1` (stereo partly specified) | -18.8 |
| 37 | `CCN(C(C)=O)c1nc(CN2CCCC2Cn2cncn2)cs1` (stereo unspecified) | 1.106 |
| 38 | `Cc1occc1C(=O)N1CCOCC2(CCN(Cc3nccs3)C2)C1.O=C(O)C(F)(F)F` (stereo unspecified) | -11.34 |
| 39 | `Cc1cnn(CC2CN(Cc3nc(N)c4ccccc4n3)CCO2)c1` (stereo unspecified) | 25.43 |
| 40 | `COc1ccc(C)cc1CN(Cc1ncc(C)o1)C1CCN(C)C1` (stereo unspecified) | 1.001 |
| 41 | `COCC(=O)N1CCCC1c1csc(Nc2cnccn2)n1` (stereo unspecified) | 3.682 |
| 42 | `Cc1cncc(C(=O)N2CCc3ncc(Cn4cccn4)n3CC2)c1` | 13.15 |
| 43 | `CC(C1CC1)N(C(=O)NCCCn1nc2ccccn2c1=O)C1CC1` (stereo unspecified) | -8.619 |
| 44 | `CN(C)CCn1c2c(ccc1=O)CC(NC(=O)c1cnccn1)CC2.O=C(O)C(F)(F)F` (stereo unspecified) | 10.23 |

Repeated from the top, 5 entries:

{"compound": "Clc1ccccc1C1(c2ccnc(CC3CC3)n2)CCNCC1", "Percent Effect": 1.745}
{"compound": "Cc1cc(C)n(CNc2nonc2C(N)=O)n1", "Percent Effect": 9.665}
{"compound": "[H][C@@]12CCCO[C@]1([H])[C@H](N(C)Cc1ccco1)CN(Cc1ccoc1)C2", "Percent Effect": -1.946}
{"compound": "CCc1nc(C2CCCN2C(=O)c2c[nH]c(C)n2)no1", "stereo": "stereo unspecified", "Percent Effect": -7.843}
{"compound": "Cc1oc2nc[nH]c(=O)c2c1C(=O)N1CCCC(n2cccn2)C1", "stereo": "stereo unspecified", "Percent Effect": "-21.67 and -13.51"}